Measurements as given in doi:10.1101/2020.08.27.270058.

Columns and labels:
[1] = biological target: T1, MglB^ΔCT (Myxococcus xanthus) (UniProt Q1DB03); assay: SEC
T1 sequence: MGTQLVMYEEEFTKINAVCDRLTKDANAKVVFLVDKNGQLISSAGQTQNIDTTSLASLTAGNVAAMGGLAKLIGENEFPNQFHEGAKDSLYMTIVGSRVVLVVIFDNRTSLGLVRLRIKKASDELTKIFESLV

[2] = biological target: T1, MglB^ΔCT (Myxococcus xanthus); assay: SAXS

- binding [1]: binds
- binding [2]: binds
Substance: MglC (Myxococcus xanthus)

No constants are given. Whether binding was seen depends on the method and setting. Binding can be weak; no strength is given.
